PubChem BioAssay AID2685 (National Center for Advancing Translational Sciences (NCATS), 2010)
Hit rate of the full screen: of about 320,000 compounds, about 2,100 (0.66%) were called active. Inconclusive means that the source gave no clear call. Such entries were picked first, then a sample of the others. Calls follow the shape of the dose curve; as a rule, active = well fitted inhibition curve with a large enough effect in the signal ratio, with a control signal flat (not every such curve was filed as active); inconclusive = small, poorly fitted or top-dose-only effect, or effect the other way, or a change in a side signal; inactive = flat fitted curve, though single readings scatter; the % refers to the signal ratio. Potencies beside an inconclusive call are fits to weak or partial responses and may not hold up.

Experiment: qHTS Assay for Lipid Storage Modulators in Drosophila S3 Cells
Settings: BODIPY lipid droplet fluorescence, 18-24 h, cells fed with added oleic acid; lipid storage change, negative = inhibition: at 46.1 µM (top of the series) unless noted
Summary of the method: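 Drosophila S3 cells got compounds at several concentrations plus oleic acid (400 uM solution). Laser-scanning cytometry with 488 nm excitation read lipid droplets at 500-530 nm and cells at 575-640 nm. Percent activity was relative to 20 uM Triacsin C.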
% is scaled to controls: 0 for no effect and ±100 for the full control effect; potency is read from the fitted curve at half-maximal effect.

SMILES	lipid storage change, negative = inhibition	Potency
N/C(=N\OC(=O)c1cccc2ccccc12)c1ccncc1	inactive	
COc1ccc(-c2nc(=S)[nH][nH]2)cc1	inactive	
CCCN(CC(=O)Nc1ccc(F)c(F)c1F)C(=O)c1ccc2c(=O)n3c(nc2c1)CCC3	inconclusive: 31.1%	
COC(=O)C(N)Cc1ccc(OC)c([N+](=O)[O-])c1 (stereo not drawn)	inconclusive: -19.9%	
CC1CC(C)CN(C(=O)CSc2nnc(-c3ccc(Cl)cc3)o2)C1 (stereo not drawn)	inconclusive: -54.9%	
CC(=O)N(c1nc(/C=C\C(=O)O)cs1)c1ccccc1F	inconclusive: -1.99%	
CCC(C)C1NC(=S)N(C2CCCCC2)C1=O (stereo not drawn)	inactive	
COc1cc(C)c(CN2CCN(CC(=O)Nc3ccccc3C(=O)NC3CC3)CC2)cc1OC		inconclusive: 20.6 µM [activator, partial curve, poor fit]
Cc1cccc(C)c1OCC(=O)Nc1ncn[nH]1		inconclusive: 3.26 µM [activator, single point]
Cc1ccc2c(c1)C(=C(C#N)C#N)C(=O)N2CCN1CCCCC1	inconclusive: 2.15%	
CCOC(=O)c1c(C)[nH]c(C)c1C(=O)COC(=O)[C@@H]1CCCN1S(=O)(=O)c1ccc(Cl)cc1	inconclusive: -8.59%	
O=C(N/N=C/c1ccc(OCCCF)cc1)c1cc(OCC(F)(F)F)ccc1OCC(F)(F)F		inconclusive: 14.6 µM [falling, partial curve]
CCC(=O)Nc1nnc(S(=O)(=O)N(C)c2ccccc2)s1		inconclusive: 1.03 µM [activator, full curve]
CC(=O)Nc1ccc(-c2csc(NC(=O)CCCc3cccs3)n2)cc1	inconclusive: 66.5%	
CCC1CCCCN1CCCNC(=O)C1CC(=O)N(CCc2ccccc2)C1 (stereo not drawn)		inconclusive: 0.517 µM [activator, full curve, poor fit]
COc1ccc(NC(=O)Cn2nnc(C(=O)NCCc3ccccc3)c2N)cc1	inconclusive: -5.37%	
Cc1ccc(C)n1CCN1CCN(C(=O)CSc2nc3ccccc3nc2N2CCOCC2)CC1	inconclusive: -4.28%	
O=C(CN1C(=O)NC2(CCCC2)C1=O)Nc1ccc(F)c([N+](=O)[O-])c1		inconclusive: 23.1 µM [falling, single point]
O=C(CSc1nc(C2CC2)n(-c2ccccc2)n1)NCc1ccco1	inconclusive: 2.17%	
O=C1CCCN1CCCNC(=S)Nc1cccc2ccccc12	inconclusive: -35.6% [at 0.369 µM]	
O=C(Nc1ccc(S(=O)(=O)N2CCOCC2)cc1)c1cc(S(=O)(=O)N2CCOCC2)ccc1Cl	inconclusive: -31.2%	
Cc1cc(C)n2nc(C(=O)NNC(=O)c3ccc(Cl)cc3)nc2n1		active: 18.4 µM
O=C(N/C(=C\c1ccc([N+](=O)[O-])cc1)C(=O)N1CCCCC1)c1ccc(Br)o1	inconclusive: 0.902%	
CC(=O)N[C@@H](C)c1nc2ccccc2n1CCNC(=O)[C@H]1CCCN1c1nc(CN2CCCCC2)cs1		inconclusive: 9.2 µM [falling, partial curve]
CC1CCCN(C(=O)C2CCN(S(=O)(=O)c3cccc4cccnc34)CC2)C1 (stereo not drawn)	inconclusive: 54.6%	
Cc1cccc(C)c1OCC(O)CN1CCN(c2ccccn2)CC1 (stereo not drawn)		inconclusive: 20.6 µM [activator, single point]

Reprinted at random: two records from the list
SMILES	lipid storage change, negative = inhibition	Potency
O=C1CCCN1CCCNC(=S)Nc1cccc2ccccc12	inconclusive: -35.6% [at 0.369 µM]	
O=C(Nc1ccc(S(=O)(=O)N2CCOCC2)cc1)c1cc(S(=O)(=O)N2CCOCC2)ccc1Cl	inconclusive: -31.2%	

The list continues.

SMILES	lipid storage change, negative = inhibition	Potency
COc1cc(/C=C2/NC(=O)N(Cc3ccccc3F)C2=O)cc(OC)c1O		inconclusive: 4.61 µM [falling, partial curve]
O=C(CSc1nc2ccccc2o1)Nc1nc(-c2ccccc2)cs1		inconclusive: 6.51 µM [activator, single point]
COc1ccc(CCC(=O)NCCc2nc3ccccc3[nH]2)cc1		inconclusive: 29.1 µM [cytotoxic, single point]
CC(=O)Nc1ccc(NC(=O)CNC(=O)COc2ccccc2)cc1		inconclusive: 0.517 µM [falling, partial curve, poor fit]
COc1cccc(CN2CCSCC2)c1OC	inactive	
COc1ccc(/C=C2/SC(=S)N(CCC(=O)O)C2=O)cc1	inactive	
Cc1ccccc1NC(=O)c1c(C)[nH]c(=S)c(C#N)c1-c1ccc(Cl)cc1	inconclusive: -12.9%	
CC1CN(Cc2nnc(-c3ccccc3)o2)CC(C)O1 (stereo not drawn)	inconclusive: -15.8%	
Cn1ccnc1SCCNC(=O)CCc1nnc(CCCCc2ccccc2)o1	inconclusive: -2.28%	
O=S(=O)(c1ccc(NC(=S)NCc2ccco2)cc1)N1CCCC1	inconclusive: 17.1%	
Cc1nc2n(n1)C(O)c1cc([N+](=O)[O-])ccc1S2 (stereo not drawn)	inconclusive: -2.07%	
CCOC(=O)NC(=O)c1cn(N(C)c2ncc(C(F)(F)F)cc2Cl)c(=O)[nH]c1=O		inconclusive: 18.4 µM [falling, single point]
C/C(=N/N=C1/NC(=O)CC(C(=O)Nc2ccccc2)S1)c1cccs1 (stereo not drawn)	inactive	
COc1ccc(N(CC(=O)NCC(C)C)S(=O)(=O)c2ccccc2)cc1	inconclusive: 13.5%	
CCn1c(=O)c(C(=O)CN(C)CC(=O)Nc2ccccc2Br)c(N)n(Cc2ccccc2)c1=O	inconclusive	
Cc1ccc(NCc2ccc(Cl)nc2)c(NCc2ccc(Cl)nc2)c1	inconclusive: 5.62%	
COc1ccc(NC2=Nc3cccc4cccc2c34)cc1OC		inconclusive: 14.6 µM [falling, partial curve, poor fit]
COc1cc(C(=O)NCc2ccncc2)cc(Br)c1OCc1ccccc1		inconclusive: 14.6 µM [falling, single point]
N#CCCN(C(=O)COC(=O)c1ccc(S(=O)(=O)N2CCCCCC2)cc1)c1ccccc1	inconclusive: 7.77%	
CN(Cc1cccnc1)Cc1cn[nH]c1-c1ccc(-c2ccccc2)cc1	inconclusive: 1.96%	
O=C(CCC(=O)OCCCC(F)(F)C(F)(F)F)NC1CCCCC1	inconclusive: 5.26%	
COc1ccc(-c2nnnn2C(C)C)cc1	inconclusive: 43.3%	
O=C(COC(=O)c1ccc(N2CCCC2=O)cc1)c1ccc(OC(F)F)cc1		inconclusive: 29.1 µM [falling, single point]
Cc1nn(-c2ccccc2)c(N2CCCC2)c1/C=N/Nc1ccc(S(N)(=O)=O)cc1[N+](=O)[O-]	inconclusive: 70.2%	
CCSc1nc2c(c(=O)[nH]c(=O)n2C)n1C	inconclusive: 7.17%	
CC(=O)Nc1cccc(C(=O)/C=C/c2ccc(C)cc2)c1	inconclusive: -58.6%	

SMILES	lipid storage change, negative = inhibition	Potency
COc1cc2c(cc1OC)C(C(=O)NCc1ccco1)C1c3ccccc3CCN1C2=O (stereo not drawn)	inconclusive: -40.5%	
CCOc1ccc(N2C(=O)Nc3ccc(Br)cc3C2(O)C(=O)NCCCN(C)C)cc1 (stereo not drawn)	inconclusive: -4.66%	
Cc1ccnc(NC(=O)c2ccc(S(=O)(=O)N3CCCCCC3)cc2)c1	inconclusive: -56.2%	
Cc1ccccc1N/N=C/c1c(C)nc2ccccn12	inconclusive: -79%	
CC(=O)Nc1nc(C)c(Oc2ccccc2)c(=O)[nH]1	inconclusive: -104%	
CC1(C)SC(=S)N(c2ccccc2)C1/[N+]([O-])=C/c1cccc([N+](=O)[O-])c1 (stereo not drawn)	inconclusive: -20.3%	
CCCCCOC(=O)CSc1n[nH]c(=O)[nH]c1=O		inconclusive: 29.1 µM [falling, single point]
Nc1nc(N2CCN(C/C=C/c3ccccc3)CC2)nc2ccccc12		inconclusive: 0.58 µM [activator, partial curve, poor fit]
O=C(CN1CCN(Cc2ccccc2)CC1)Nc1cccc(Cl)c1	inconclusive: -21.2%	
O=C(NC(=S)Nc1ccc2c(c1)OCCO2)c1ccc(F)cc1Cl	inconclusive: 18.2%	
O=C(NC1CCCc2ccccc21)c1ccc(F)cc1F (stereo not drawn)		inconclusive: 29.1 µM [activator, single point]
COc1ccc2c(Cl)c(C(=O)NCCCn3ccnc3)sc2c1		inconclusive: 4.11 µM [activator, partial curve]
Cc1ccc(S(=O)(=O)Nc2ccccc2/C=N/c2nc3ccccc3n2C)cc1	inconclusive: 22.5%	
O=C(COC(=O)Cc1cccc(C(F)(F)F)c1)Nc1cccc2ccccc12	inconclusive: 8.1%	
CCN(CC)S(=O)(=O)c1ccc2c(c1)nc(SCC(=O)NCC1CCCO1)n2CC (stereo not drawn)	inconclusive: 19.5%	
CC(C)(C)C(=O)NC(n1cnc2c(N3CCOCC3)ncnc21)C(Cl)(Cl)Cl (stereo not drawn)	inconclusive: -10.8%	
O=[N+]([O-])c1ccc(N/N=C/c2cccnc2)cc1	inconclusive: -35.9%	
CCc1c(C)nc(N)n2c(SCC(=O)N3CCN(c4ccccc4F)CC3)nnc12	inactive	
Cc1cc(=O)n2c(ccc3ccccc32)c1C#N	inconclusive: -49.8%	
CCOc1ccc(-c2nnc(SCC(=O)N(CC)CC)n2N)cc1	inconclusive: 17%	
COc1ccccc1NC(=O)Cn1c(=O)sc2ccccc21	inconclusive: -12.8%	
COc1ccc(CNC(=O)C(=O)NCC2OCCN2S(=O)(=O)c2ccc3c(c2)OCCO3)cc1 (stereo not drawn)	inconclusive: 27.3%	
CCOc1cc(Br)c(C(=O)O)cc1OCC	inconclusive: -34.1%	
Cc1ccc(NC(=O)/C(=C/c2cccc([N+](=O)[O-])c2)NC(=O)C2CCCCC2)cc1		inconclusive: 1.64 µM [activator, partial curve, poor fit]
CCCOC(=O)NC(CC)COC(=O)Nc1cc(C)ccc1C (stereo not drawn)	inconclusive: -25.5%	
NC(=O)c1oc2ccccc2c1NC(=O)CCc1ccccc1	inconclusive: 43.6%	

3 neighbouring entries out of the list so far, for reference:
SMILES	lipid storage change, negative = inhibition	Potency
Cc1ccc(S(=O)(=O)Nc2ccccc2/C=N/c2nc3ccccc3n2C)cc1	inconclusive: 22.5%	
O=C(COC(=O)Cc1cccc(C(F)(F)F)c1)Nc1cccc2ccccc12	inconclusive: 8.1%	
CCN(CC)S(=O)(=O)c1ccc2c(c1)nc(SCC(=O)NCC1CCCO1)n2CC (stereo not drawn)	inconclusive: 19.5%	
